Source: publication PMC10556790
These are yes or no findings as the source states them, for the method shown. Binding seen in cells or lysates may run through a third protein. Here binding means that the protein was enriched with, or labelled near, the bait; the list need not be complete.

Sequences of proteins named here, by UniProt entry; tags and fusion partners are left off. Residues count along the entry.
UniProt P00441: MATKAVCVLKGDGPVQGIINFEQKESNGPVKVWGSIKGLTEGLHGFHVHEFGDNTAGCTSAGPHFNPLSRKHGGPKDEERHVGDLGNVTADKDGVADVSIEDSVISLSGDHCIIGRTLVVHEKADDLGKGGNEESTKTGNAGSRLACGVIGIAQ
UniProt P36873: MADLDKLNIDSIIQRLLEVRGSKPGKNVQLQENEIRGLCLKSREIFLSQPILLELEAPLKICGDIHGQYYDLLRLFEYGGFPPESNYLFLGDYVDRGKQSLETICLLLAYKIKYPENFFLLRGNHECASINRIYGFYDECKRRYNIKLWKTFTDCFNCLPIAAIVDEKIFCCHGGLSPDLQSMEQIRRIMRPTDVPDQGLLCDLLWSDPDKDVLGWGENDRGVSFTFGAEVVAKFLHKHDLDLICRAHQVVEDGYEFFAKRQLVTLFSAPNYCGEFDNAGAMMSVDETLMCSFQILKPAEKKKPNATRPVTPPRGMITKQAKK
UniProt P63167: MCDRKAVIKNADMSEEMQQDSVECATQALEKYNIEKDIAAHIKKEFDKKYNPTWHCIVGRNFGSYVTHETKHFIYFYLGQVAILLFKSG
UniProt P40939, residues 37-763: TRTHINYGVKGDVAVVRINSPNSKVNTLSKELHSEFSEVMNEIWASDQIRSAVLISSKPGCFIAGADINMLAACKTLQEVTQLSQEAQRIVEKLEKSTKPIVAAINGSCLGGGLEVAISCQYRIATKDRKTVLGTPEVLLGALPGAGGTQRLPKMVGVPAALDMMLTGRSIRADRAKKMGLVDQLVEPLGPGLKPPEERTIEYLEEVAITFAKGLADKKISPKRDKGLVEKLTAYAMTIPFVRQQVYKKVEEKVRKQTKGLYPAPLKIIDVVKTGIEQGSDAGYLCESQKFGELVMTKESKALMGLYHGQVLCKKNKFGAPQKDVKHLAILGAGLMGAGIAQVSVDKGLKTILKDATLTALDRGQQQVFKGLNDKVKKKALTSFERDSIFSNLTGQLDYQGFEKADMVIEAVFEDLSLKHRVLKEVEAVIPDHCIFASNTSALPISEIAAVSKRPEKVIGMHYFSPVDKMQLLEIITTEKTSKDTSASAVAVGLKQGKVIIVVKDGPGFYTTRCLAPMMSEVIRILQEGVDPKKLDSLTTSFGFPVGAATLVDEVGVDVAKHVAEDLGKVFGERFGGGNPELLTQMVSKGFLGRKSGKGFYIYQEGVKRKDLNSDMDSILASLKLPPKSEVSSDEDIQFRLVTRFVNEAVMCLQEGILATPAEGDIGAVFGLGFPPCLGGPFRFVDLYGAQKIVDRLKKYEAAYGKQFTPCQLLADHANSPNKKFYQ
UniProt Q96DU9: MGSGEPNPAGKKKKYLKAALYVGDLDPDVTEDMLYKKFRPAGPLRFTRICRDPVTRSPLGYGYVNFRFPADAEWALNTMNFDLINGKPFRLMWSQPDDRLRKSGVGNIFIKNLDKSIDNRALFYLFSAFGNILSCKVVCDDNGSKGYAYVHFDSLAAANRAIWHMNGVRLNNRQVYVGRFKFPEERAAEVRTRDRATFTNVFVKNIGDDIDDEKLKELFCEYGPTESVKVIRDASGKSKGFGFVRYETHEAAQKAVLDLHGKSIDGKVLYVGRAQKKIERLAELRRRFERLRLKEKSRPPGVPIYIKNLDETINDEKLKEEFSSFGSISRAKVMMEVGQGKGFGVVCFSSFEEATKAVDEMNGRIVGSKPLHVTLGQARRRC

B1: Isocitrate dehydrogenase [NAD] subunit alpha, mitochondrial (protein, UniProt P50213 28-366)
chain: TGGVQTVTLIPGDGIGPEISAAVMKIFDAAKAPIQWEERNVTAIQGPGGKWMIPSEAKESMDKNKMGLKGPLKTPIAAGHPSMNLLLRKTFDLYANVRPCVSIEGYKTPYTDVNIVTIRENTEGEYSGIEHVIVDGVVQSIKLITEGASKRIAEFAFEYARNNHRSNVTAVHKANIMRMSDGLFLQKCREVAESCKDIKFNEMYLDTVCLNMVQDPSQFDVLVMPNLYGDILSDLCAGLIGGLGVTPSGNIGANGVAIFESVHGTAPDIAGKDMANPTALLLSAVMMLRHMGLFDHAARIEAACFATIKDGKSLTKDLGGNAKCSDFTEEICRRVKDLD
B2: Pyrroline-5-carboxylate reductase 2 (protein, UniProt Q96C36 1-320)
chain: MSVGFIGAGQLAYALARGFTAAGILSAHKIIASSPEMNLPTVSALRKMGVNLTRSNKETVKHSDVLFLAVKPHIIPFILDEIGADVQARHIVVSCAAGVTISSVEKKLMAFQPAPKVIRCMTNTPVVVQEGATVYATGTHALVEDGQLLEQLMSSVGFCTEVEEDLIDAVTGLSGSGPAYAFMALDALADGGVKMGLPRRLAIQLGAQALLGAAKMLLDSEQHPCQLKDNVCSPGGATIHALHFLESGGFRSLLINAVEASCIRTRELQSMADQEKISPAALKKTLLDRVKLESPTVSTLTPSSPGKLLTRSLALGGKKD
B3: Putative coiled-coil-helix-coiled-coil-helix domain-containing protein CHCHD2P9, mitochondrial (protein, UniProt Q5T1J5 10-151)
chain: SRMAPPASRAPQMRAAPRPAPVAQPPAAAPPSAVGSSAAAPRQPGLMAQMATTAAGVAVGSAVGHTQGHAVTGGFSGGSNAEPARPDIAYQEPQGTQPAQQQQPCFYGIKQFLECAQNQGDIKLCEDFSKVLKQCRLAKGLA
B4: Acetyl-CoA acetyltransferase, mitochondrial (protein, UniProt P24752 34-427)
chain: VSKPTLKEVVIVSATRTPIGSFLGSLSLLPATKLGSIAIQGAIEKAGIPKEEVKEAYMGNVLQGGEGQAPTRQAVLGAGLPISTPCTTINKVCASGMKAIMMASQSLMCGHQDVMVAGGMESMSNVPYVMNRGSTPYGGVKLEDLIVKDGLTDVYNKIHMGSCAENTAKKLNIARNEQDAYAINSYTRSKAAWEAGKFGNEVIPVTVTVKGQPDVVVKEDEEYKRVDFSKVPKLKTVFQKENGTVTAANASTLNDGAAALVLMTADAAKRLNVTPLARIVAFADAAVEPIDFPIAPVYAASMVLKDVGLKKEDIAMWEVNEAFSLVVLANIKMLEIDPQKVNINGGAVSLGHPIGMSGARIVGHLTHALKQGEYGLASICNGGGGASAMLIQKL
B5: Enoyl-CoA hydratase, mitochondrial (protein, UniProt P30084 28-290)
chain: ASGANFEYIIAEKRGKNNTVGLIQLNRPKALNALCDGLIDELNQALKTFEEDPAVGAIVLTGGDKAFAAGADIKEMQNLSFQDCYSSKFLKHWDHLTQVKKPVIAAVNGYAFGGGCELAMMCDIIYAGEKAQFAQPEILIGTIPGAGGTQRLTRAVGKSLAMEMVLTGDRISAQDAKQAGLVSKICPVETLVEEAIQCAEKIASNSKIVVAMAKESVNAAFEMTLTEGSKLEKKLFYSTFATDDRKEGMTAFVEKRKANFKDQ
B6: Aconitate hydratase, mitochondrial (protein, UniProt Q99798 28-780)
chain: QRAKVAMSHFEPNEYIHYDLLEKNINIVRKRLNRPLTLSEKIVYGHLDDPASQEIERGKSYLRLRPDRVAMQDATAQMAMLQFISSGLSKVAVPSTIHCDHLIEAQVGGEKDLRRAKDINQEVYNFLATAGAKYGVGFWKPGSGIIHQIILENYAYPGVLLIGTDSHTPNGGGLGGICIGVGGADAVDVMAGIPWELKCPKVIGVKLTGSLSGWSSPKDVILKVAGILTVKGGTGAIVEYHGPGVDSISCTGMATICNMGAEIGATTSVFPYNHRMKKYLSKTGREDIANLADEFKDHLVPDPGCHYDQLIEINLSELKPHINGPFTPDLAHPVAEVGKVAEKEGWPLDIRVGLIGSCTNSSYEDMGRSAAVAKQALAHGLKCKSQFTITPGSEQIRATIERDGYAQILRDLGGIVLANACGPCIGQWDRKDIKKGEKNTIVTSYNRNFTGRNDANPETHAFVTSPEIVTALAIAGTLKFNPETDYLTGTDGKKFRLEAPDADELPKGEFDPGQDTYQHPPKDSSGQHVDVSPTSQRLQLLEPFDKWDGKDLEDLQILIKVKGKCTTDHISAAGPWLKFRGHLDNISNNLLIGAINIENGKANSVRNAVTQEFGPVPDTARYYKKHGIRWVVIGDENYGEGSSREHAALEPRHLGGRAIITKSFARIHETNLKKQGLLPLTFADPADYNKIHPVDKLTIQGLKDFTPGKPLKCIIKHPNGTQETILLNHTFNETQIEWFRAGSALNRMKELQQ
B7: Electron transfer flavoprotein subunit alpha, mitochondrial (protein, UniProt P13804 20-333)
chain: QSTLVIAEHANDSLAPITLNTITAATRLGGEVSCLVAGTKCDKVAQDLCKVAGIAKVLVAQHDVYKGLLPEELTPLILATQKQFNYTHICAGASAFGKNLLPRVAAKLEVAPISDIIAIKSPDTFVRTIYAGNALCTVKCDEKVKVFSVRGTSFDAAATSGGSASSEKASSTSPVEISEWLDQKLTKSDRPELTGAKVVVSGGRGLKSGENFKLLYDLADQLHAAVGASRAAVDAGFVPNDMQVGQTGKIVAPELYIAVGISGAIQHLAGMKDSKTIVAINKDPEAPIFQVADYGIVADLFKVVPEMTEILKKK
B8: 3-Ketoacyl-CoA thiolase, mitochondrial (protein, UniProt P42765 1-397)
chain: MALLRGVFVVAAKRTPFGAYGGLLKDFTATDLSEFAAKAALSAGKVSPETVDSVIMGNVLQSSSDAIYLARHVGLRVGIPKETPALTINRLCGSGFQSIVNGCQEICVKEAEVVLCGGTESMSQAPYCVRNVRFGTKLGSDIKLEDSLWVSLTDQHVQLPMAMTAENLAVKHKISREECDKYALQSQQRWKAANDAGYFNDEMAPIEVKTKKGKQTMQVDEHARPQTTLEQLQKLPPVFKKDGTVTAGNASGVADGAGAVIIASEDAVKKHNFTPLARIVGYFVSGCDPSIMGIGPVPAISGALKKAGLSLKDMDLVEVNEAFAPQYLAVERSLDLDISKTNVNGGAIALGHPLGGSGSRITAHLVHELRRRGGKYAVGSACIGGGQGIAVIIQSTA
B9: Pyruvate dehydrogenase E1 component subunit beta, mitochondrial (protein, UniProt P11177 31-359)
chain: LQVTVRDAINQGMDEELERDEKVFLLGEEVAQYDGAYKVSRGLWKKYGDKRIIDTPISEMGFAGIAVGAAMAGLRPICEFMTFNFSMQAIDQVINSAAKTYYMSGGLQPVPIVFRGPNGASAGVAAQHSQCFAAWYGHCPGLKVVSPWNSEDAKGLIKSAIRDNNPVVVLENELMYGVPFEFPPEAQSKDFLIPIGKAKIERQGTHITVVSHSRPVGHCLEAAAVLSKEGVECEVINMRTIRPMDMETIEASVMKTNHLVTVEGGWPQFGVGAEICARIMEGPAFNFLDAPAVRVTGADVPMPYAKILEDNSIPQVKDIIFAIKKTLNI
B10: Sideroflexin-1 (protein, UniProt Q9H9B4 1-322)
chain: MSGELPPNINIKEPRWDQSTFIGRANHFFTVTDPRNILLTNEQLESARKIVHDYRQGIVPPGLTENELWRAKYIYDSAFHPDTGEKMILIGRMSAQVPMNMTITGCMMTFYRTTPAVLFWQWINQSFNAVVNYTNRSGDAPLTVNELGTAYVSATTGAVATALGLNALTKHVSPLIGRFVPFAAVAAANCINIPLMRQRELKVGIPVTDENGNRLGESANAAKQAITQVVVSRILMAAPGMAIPPFIMNTLEKKAFLKRFPWMSAPIQVGLVGFCLVFATPLCCALFPQKSSMSVTSLEAELQAKIQESHPELRRVYFNKGL
B11: Cytosolic acyl coenzyme A thioester hydrolase (protein, UniProt O00154 1-380)
chain: MKLLARALRLCEFGRQASSRRLVAGQGCVGPRRGCCAPVQVVGPRADLPPCGACITGRIMRPDDANVAGNVHGGTILKMIEEAGAIISTRHCNSQNGERCVAALARVERTDFLSPMCIGEVAHVSAEITYTSKHSVEVQVNVMSENILTGAKKLTNKATLWYVPLSLKNVDKVLEVPPVVYSRQEQEEEGRKRYEAQKLERMETKWRNGDIVQPVLNPEPNTVSYSQSSLIHLVGPSDCTLHGFVHGGVTMKLMDEVAGIVAARHCKTNIVTASVDAINFHDKIRKGCVITISGRMTFTSNKSMEIEVLVDADPVVDSSQKRYRAASAFFTYVSLSQEGRSLPVPQLVPETEDEKKRFEEGKGRYLQMKAKRQGHAEPQP

Each molecule was assayed against FLAG-tagged CLPX (CLPXf) (human) (UniProt O76031) (assay: affinity purification with mass spectrometry; FLAG-tagged CLPX precipitated from lysate of doxycycline-induced CLPXf^ind/FT293^ΔCLPX cells with anti-DDDDK-agarose beads (3 h, 4 °C), eluted with DDDDK peptides, trypsin digest, LC-MS/MS; OTC-Lucf cells as control for non-specific proteins; mitochondrial proteins extracted with DAVID).

binding, binds:
Superoxide dismutase [Cu-Zn] (from UniProt P00441 1-154)
Serine/threonine-protein phosphatase PP1-gamma catalytic subunit (from UniProt P36873 1-323)
Dynein light chain 1, cytoplasmic (from UniProt P63167 1-89)
Trifunctional enzyme subunit alpha, mitochondrial (from UniProt P40939 37-763)
Polyadenylate-binding protein 5 (from UniProt Q96DU9 1-382)
Creatine kinase U-type, mitochondrial (from UniProt P12532 40-417)
B1
B2
B3
B4
B5
B6
B7
B8
B9
B10
B11
